{"source": "PubChem BioAssay AID1347423", "about": "(Functional Genomics Laboratory (NCATS/FGL), 2020)", "note": "The campaign covered roughly 52,000 sequences. About 210 (0.4%) were called active.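 The calls were made as follows: active = gene whose silencing raises cell survival under the drug, median off-target-corrected z-score across its silencing RNAs 2 or more; inactive = the rest.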 This is one part of the list.", "data": [{"experiment": "Resistance to Poly (ADP-Ribose) Polymerase inhibitor: Gene Identification via Genome-wide siRNA Screen", "settings": "mouse BRCA2 R2336H ES cells, olaparib, CellTiter-Glo viability; active compounds read high", "method_in_brief": "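Mouse BRCA2 R2336H ES cells were reverse-transfected with siRNA (20 nM final), treated at 48 h with 500 nM olaparib, and read by CellTiter-Glo after 72 h. Scores: MAD-based z per siRNA, median per gene, seed off-target correction.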", "values": [{"sequence": "GGAACAUGGCACUUUCGUGTT against Pcdh10", "z-score": "inactive: 0.756"}, {"sequence": "CGGGCAUAAAGGUUACAUATT against Hspa4", "z-score": "inactive: 0.203"}, {"sequence": "GGAGUUUAUAACACAUAGGTT against 5930437A14Rik", "z-score": "inactive: 1.27"}, {"sequence": "GCGUGAGAUACCAUAUUAUTT against Bank1", "z-score": "inactive: -0.779"}, {"sequence": "GGUAUCAAAACAACAGUCCTT against Upk1b", "z-score": "inactive: 0.127"}, {"sequence": "GGACAAUUCUAUCAAGUGGTT against Fcrl3", "z-score": "inactive: 0.602"}, {"sequence": "GGAGAAAAGUACCAAGAUGTT against 1810023F06Rik", "z-score": "inactive: 2.44"}, {"sequence": "GGAGCUGUUUAUGUACUUUTT against BC034753", "z-score": "inactive: -0.33"}, {"sequence": "CCAGAUGUUACGAAUGAAATT against 2700094F01Rik", "z-score": "inactive: -1.65"}, {"sequence": "GGCACACACAAAGUAUUUCTT against 1300014I06Rik", "z-score": "inactive: -0.147"}, {"sequence": "GGUACUUACAGGUUGUCAUTT against Mageb1", "z-score": "inactive: 0.191"}, {"sequence": "GGAAGGCAAAUCAAAAUCCTT against Zfp609", "z-score": "inactive: 0.914"}, {"sequence": "GGCGUAUUUUCCAACAGAGTT against Nxf3", "z-score": "inactive: -0.581"}, {"sequence": "CCUGAACACAAGUGCUGGUTT against Dcir2", "z-score": "inactive: 1.65"}, {"sequence": "GGUUAAAAACAACUGAAAGTT against 9630028B13Rik", "z-score": "inactive: -0.0837"}, {"sequence": "GGUGUACUUUUUCCUAUUUTT against Olfr352", "z-score": "inactive: -1.62"}, {"sequence": "GCUAGAACAGCAAAAAAAATT against Scgb3a1", "z-score": "inactive: 0.00969"}, {"sequence": "CCUUCAACACCACGAAUCUTT against Npdc1", "z-score": "inactive: 0.838"}, {"sequence": "GGCGUGCGAUAACACGCAATT against 2810046C01Rik", "z-score": "inactive: 0.361"}, {"sequence": "GGUCAAGUAUCAUUUUUGCTT against Negr1", "z-score": "inactive: 0.268"}, {"sequence": "GGUGAUCACUAACCUACUATT against AI427100", "z-score": "inactive: -0.505"}, {"sequence": "GGCAAGAAACAGUCAUAAGTT against Eps8l3", "z-score": "inactive: -0.888"}, {"sequence": "CCUUACACUAAGAAAAAGGTT against Rad50", "z-score": "inactive: -0.367"}, {"sequence": "GGGAAUCAUGAUAUGUUUCTT against 4432406C05Rik", "z-score": "inactive: 1.12"}, {"sequence": "CCAGAUCCCAUAGCAACCATT against Bpnt1", "z-score": "inactive: -0.21"}, {"sequence": "GCUUAAAACAGACCAUUUUTT against 1700013G20Rik", "z-score": "inactive: 0.824"}, {"sequence": "GGGCAAUUGCUAUAUCUUATT against Cldn2", "z-score": "inactive: -0.637"}, {"sequence": "GCUACAAGAAAUCUUGAUGTT against Tm4sf8", "z-score": "inactive: -0.0884"}]}]}
